Amino acid sequences for entries named in this document (tags omitted). Residues count along the entry.
UniProt P08069, 31-1367: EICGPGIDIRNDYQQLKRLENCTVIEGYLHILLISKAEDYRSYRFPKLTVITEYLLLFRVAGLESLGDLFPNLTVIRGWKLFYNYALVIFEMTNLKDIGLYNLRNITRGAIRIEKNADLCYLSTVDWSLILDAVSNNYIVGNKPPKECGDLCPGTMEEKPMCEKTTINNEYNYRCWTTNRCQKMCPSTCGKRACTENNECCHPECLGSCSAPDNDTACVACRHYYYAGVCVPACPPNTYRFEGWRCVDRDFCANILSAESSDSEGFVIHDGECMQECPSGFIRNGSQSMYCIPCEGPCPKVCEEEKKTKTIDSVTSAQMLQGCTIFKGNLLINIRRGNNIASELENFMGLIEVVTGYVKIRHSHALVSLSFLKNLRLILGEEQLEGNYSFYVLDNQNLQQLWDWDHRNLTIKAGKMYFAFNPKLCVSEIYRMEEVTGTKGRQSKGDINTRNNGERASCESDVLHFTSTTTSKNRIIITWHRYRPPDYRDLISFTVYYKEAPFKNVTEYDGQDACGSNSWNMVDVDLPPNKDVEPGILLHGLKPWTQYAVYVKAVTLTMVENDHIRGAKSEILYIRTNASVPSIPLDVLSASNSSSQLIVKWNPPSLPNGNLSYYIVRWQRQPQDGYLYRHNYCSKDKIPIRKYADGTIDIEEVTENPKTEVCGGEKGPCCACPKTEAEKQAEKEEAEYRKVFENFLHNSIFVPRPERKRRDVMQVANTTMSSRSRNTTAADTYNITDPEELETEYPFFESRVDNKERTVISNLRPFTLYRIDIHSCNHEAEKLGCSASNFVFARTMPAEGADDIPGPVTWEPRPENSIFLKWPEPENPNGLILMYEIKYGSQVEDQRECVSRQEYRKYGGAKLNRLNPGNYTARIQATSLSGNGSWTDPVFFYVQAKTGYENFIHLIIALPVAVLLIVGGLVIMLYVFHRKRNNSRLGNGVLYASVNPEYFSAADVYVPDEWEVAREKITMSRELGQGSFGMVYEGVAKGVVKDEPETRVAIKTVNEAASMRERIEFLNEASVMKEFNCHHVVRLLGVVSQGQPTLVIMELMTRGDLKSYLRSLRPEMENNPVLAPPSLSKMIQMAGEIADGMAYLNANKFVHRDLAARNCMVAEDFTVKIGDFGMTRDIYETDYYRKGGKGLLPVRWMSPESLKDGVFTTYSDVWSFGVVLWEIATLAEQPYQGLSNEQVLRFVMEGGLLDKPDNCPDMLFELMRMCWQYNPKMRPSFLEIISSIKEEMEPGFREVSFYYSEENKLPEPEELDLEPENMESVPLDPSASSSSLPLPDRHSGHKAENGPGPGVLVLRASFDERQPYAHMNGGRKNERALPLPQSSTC

Some of these results come from one statement about several compounds together.
The molecules below were run against T1, IGF-1R kinase (Homo sapiens, UniProt P08069) (assay: IGF-1R kinase inhibition (33P transfer to plate-bound substrate)). Settings: read-out: inhibited IGF-1R kinase (IC50).
T1 construct: Kinases are expressed as either kinase domains or full length constructs; made in house
Type: biochemical
Molecule `c1ccc2ncc(Nc3ccnc(Nc4ccc5[nH]cnc5c4)n3)cc2c1` [Example 2, N^4-quinolin-3-yl-N^2-(6-benzimidazolyl)pyrimidine-2,4-diamine] has an IC50 of under 0.05 µM. `c1ccc2ncc(Nc3ccnc(Nc4ccc5[nH]ncc5c4)n3)cc2c1` [Example 4, N^4-quinolin-3-yl-N^2-(5-indazolyl)pyrimidine-2,4-diamine] showed an IC50 of under 0.05 µM. With `c1ccc2ncc(Nc3ccnc(Nc4ccc5cn[nH]c5c4)n3)cc2c1` [Example 6, N^4-quinolin-3-yl-N^2-(6-indazolyl)pyrimidine-2,4-diamine] the IC50 was under 0.05 µM. `COc1ccc(OC)c(Nc2nccc(Nc3cnc4ccccc4c3)n2)c1` [Example 8, N^4-quinolin-3-yl-N^2-(2,5-dimethoxyphenyl)pyrimidine-2,4-diamine] showed an IC50 of under 0.05 µM. `c1cnc2ccc(Nc3ccnc(Nc4ccc5ncccc5c4)n3)cc2c1` [Example 13, N^4-quinolin-6-yl-N^2-(6-quinolinyl)pyrimidine-2,4-diamine] gave an IC50 of under 0.05 µM. Molecule `NS(=O)(=O)c1cccc(Nc2nccc(Nc3ccc4ncccc4c3)n2)c1` [Example 15, N^2-(3-aminosulfonylphenyl)-N^4-quinolin-6-yl-pyrimidine-2,4-diamine] has an IC50 of under 0.05 µM. In the case of `NS(=O)(=O)c1cccc(Nc2nccc(Nc3cnc4ccccc4c3)n2)c1` [Example 16, N^2-(3-aminosulfonylphenyl)-N^4-quinolin-3-yl-pyrimidine-2,4-diamine], the IC50 is reported as under 0.05 µM. For `NS(=O)(=O)c1ccc(Nc2nccc(Nc3ccc4ncccc4c3)n2)cc1` [Example 17, N^2-(4-aminosulfonylphenyl)-N^4-quinolin-6-yl-pyrimidine-2,4-diamine], the IC50 was under 0.05 µM. In the case of `NS(=O)(=O)c1ccc(Nc2nccc(Nc3cnc4ccccc4c3)n2)cc1` [Example 18, N^2-(4-aminosulfonylphenyl)-N^4-quinolin-3-yl-pyrimidine-2,4-diamine], the IC50 is reported as under 0.05 µM. `COc1cc(C)c(Nc2nccc(Nc3ccc4ncccc4c3)n2)cc1OC` [Example 19, N^2-(3,4-dimethoxy-6-methylphenyl)-N^4-quinolin-6-yl-pyrimidine-2,4-diamine] was tested, and the IC50 was under 0.05 µM. `COc1cc(C)c(Nc2nccc(Nc3cnc4ccccc4c3)n2)cc1OC` [Example 20, N^2-(3,4-dimethoxy-6-methylphenyl)-N^4-quinolin-3-yl-pyrimidine-2,4-diamine] gave an IC50 of under 0.05 µM. Work on `c1ccc2ncc(Nc3ccnc(Nc4cccc5[nH]ccc45)n3)cc2c1` [Example 28, N^2-(1H-indol-4-yl)-N^4-(3-quinolinyl)-2,4-pyrimidinediamine] yielded an IC50 of under 0.05 µM. `CC(=O)Nc1cccc(Nc2nccc(Nc3cnc4ccccc4c3)n2)c1` [Example 37, N-(3-((4-(3-quinolinylamino)-2-pyrimidinyl)amino)phenyl)acetamide] was tested, and the IC50 was under 0.05 µM. For `COC(=O)c1ccc(Nc2nccc(Nc3cnc4ccccc4c3)n2)cc1` [Example 39, methyl 4-((4-(3-quinolinylamino)-2-pyrimidinyl)amino)-benzoate], the IC50 was under 0.05 µM. Work on `COC(=O)c1cccc(Nc2nccc(Nc3cnc4ccccc4c3)n2)c1` [Example 40, methyl 3-((4-(3-quinolinylamino)-2-pyrimidinyl)amino)-benzoate] yielded an IC50 of under 0.05 µM. In the case of `c1ccc2ncc(Nc3ccnc(Nc4ccc(N5CCOCC5)nc4)n3)cc2c1` [Example 49, N^2-(6-(4-morpholinyl)-3-pyridinyl)-N^4-(3-quinolinyl)-2,4-pyrimidinediamine], the IC50 is reported as under 0.05 µM. `CC(=O)c1ccc(Nc2nccc(Nc3cnc4ccccc4c3)n2)cc1` [Example 59, 1-(4-((4-(3-quinalinylamino)-2-pyrimidinyl)amino)phenyl)ethanone] gave an IC50 of under 0.05 µM. In the case of `c1ccc2ncc(Nc3ccnc(Nc4ccc5[nH]ccc5c4)n3)cc2c1` [Example 61, N^2-(1H-indol-5-yl)-N^4-(3-quinolinyl)-2,4-pyrimidinediamine], the IC50 is reported as under 0.05 µM. In the case of `NC(=O)c1ccc(Nc2nccc(Nc3cnc4ccccc4c3)n2)cc1` [Example 62, 4-((4-(3-quinolinylamino)-2-pyrimidinyl)amino)-benzamide], the IC50 is reported as under 0.05 µM. For `COc1ccc(Nc2nccc(Nc3ccc4ncccc4c3)n2)cc1OC` [Example 66, N^4-Quinolin-6-yl-N^2-(3,4-dimethoxyphenyl)-pyrimidine-2,4-diamine], the IC50 was under 0.05 µM. In the case of `COc1ccccc1Nc1nccc(Nc2cnc3ccccc3c2)n1` [Example 69, N^2-(2-methoxyphenyl)-N^4-(3-quinolinyl)-2,4-pyrimidinediamine], the IC50 is reported as under 0.05 µM. `COc1cccc(Nc2nccc(Nc3ccc4ncccc4c3)n2)c1` [Example 72, N^2-(3-methoxypheflyl)-N^4-(6-quinolinyl)-2,4-pyrimidinediamine] showed an IC50 of under 0.05 µM. `CCOc1ccc(Nc2nccc(Nc3cnc4ccccc4c3)n2)cc1OCC` [Example 75, N^2-(3,4-bis(ethoxy)phenyl)-N^4-(3-quinolinyl)-2,4-pyrimidinediamine] was tested, and the IC50 was under 0.05 µM. `CCOc1ccc(Nc2nccc(Nc3ccc4ncccc4c3)n2)cc1OCC` [Example 76, N^2-(3,4-bis(ethoxy)pheflyl)-N^4-(6-quinolinyl)-2,4-pyrimidinediamine] showed an IC50 of under 0.05 µM. `CN1CCN(c2ccc(Nc3nccc(Nc4cnc5ccccc5c4)n3)cc2)CC1` [Example 84, N^2-(4-(4-methyl-1-piperazinyl)phenyl)-N^4-(3-qulnolinyl)-2,4-pyrimidinediamine] gave an IC50 of under 0.05 µM. In the case of `COc1cc(Nc2nccc(Nc3cnc4ccccc4c3)n2)ccc1C(N)=O` [Example 94, 2-(Methoxy)-4-((4-(3-quinolinylamino)-2-pyrimidinyl)amino)benzamide], the IC50 is reported as under 0.05 µM. With `c1ccc2ncc(Nc3ccnc(Nc4ccc(OCCN5CCCCC5)cc4)n3)cc2c1` [Example 99, N^2-(4-((2-(1-Piperidinyl)ethyl)oxy)phenyl)-N^4-(3-quinolinyl)-2,4-pyrimidinediamine] the IC50 was under 0.05 µM. With `COc1ccc(Nc2nccc(Nc3cnc4ccccc4c3)n2)cc1CCN(C)C` [Example 100] the IC50 was under 0.05 µM. Work on `c1cc(Nc2nccc(Nc3ccc4ncccc4c3)n2)cc(-c2cnco2)c1` [Example 105, N^2-(3-(1,3-oxazol-5-yl)phenyl)-N^4-(6-quinolinyl)-2,4-pyrimidinediamine] yielded an IC50 of under 0.05 µM. Molecule `COc1cc(Nc2nccc(Nc3cnc4ccccc4c3)n2)ccc1-c1cnco1` [Example 108, N^2-(3-methoxy-4-(1,3-oxazol-5-yl)pheflyl)-N^4-(3-quinoliflyl)-2,4-pyrimidinediamine] has an IC50 of under 0.05 µM. Work on `CC(=O)N1CC(C)(C)c2ccc(Nc3nccc(Nc4cnc5ccccc5c4)n3)cc21` [Example 110, N^2-(1-acetyl-3,3-dimethyl-2,3-dihydro-1H-indol-6-yl)-N^4-(3-quinolinyl)-2,4-pyrimidinediamine] yielded an IC50 of under 0.05 µM. `CC(=O)N1CC(C)(C)c2ccc(Nc3nccc(Nc4ccc5ncccc5c4)n3)cc21` [Example 111, N^2-(1-acetyl-3,3-dimethyl-2,3-dihydro-1H-indol-6-yl)-N^4-(6-quinolinyl)-2,4-pyrimidinediamine] showed an IC50 of under 0.05 µM. In the case of `CC1(C)CNc2cc(Nc3nccc(Nc4cnc5ccccc5c4)n3)ccc21` [Example 112, N^2-(3,3-Dimethyl-2,3-dihydro-1H-indol-6-yl)-N^4-(3-quinolinyl)-2,4-pyrimidinediamine], the IC50 is reported as under 0.05 µM. `COc1cc(Nc2nccc(Nc3ccc4nc(C)ccc4c3)n2)cc(OC)c1OC` [Example 118, N^4-(2-Methyl-6-quinolinyl)-N^2-(3,4,5-tris(methoxy)phenyl)-2,4-pyrimidinediamine] showed an IC50 of under 0.05 µM. `Cn1ncc2cc(Nc3nccc(Nc4cnc5ccccc5c4)n3)ccc21` [Example 121, N^2-(1-Methyl-1H-indazol-5-yl)-N^4-quinolin-3-yl-pyrimidine-2,4-diamine] was tested, and the IC50 was under 0.05 µM. `COc1cc(Nc2nccc(Nc3cc4ccccc4c(OC)n3)n2)cc(OC)c1OC` [Example 130, N^4-(1-Methoxy-isoquinolin-3-yl)-N^2-(3,4,5-trimethoxy-phenyl)-pyrimidine-2,4-diamine] was tested, and the IC50 was under 0.05 µM. With `COc1cc(C)c(Nc2nccc(Nc3cc4ccccc4c(OC)n3)n2)cc1OC` [Example 131, N^2-(4,5-Dimethoxy-2-methyl-phenyl)-N^4-(1-methoxy-isoquinolin-3-yl)-pyrimidine-2,4-diamine] the IC50 was under 0.05 µM. `COc1ccc2ncc(Nc3ccnc(Nc4cc(OC)c(OC)c(OC)c4)n3)cc2c1` [Example 134, N^4-(6-Methoxy-quinolin-3-yl)-N^2-(3,4,5-tris(methoxy)phenyl)-2,4-pyrimidinediamine] was tested, and the IC50 was under 0.05 µM. Work on `COc1cc(Nc2nccc(Nc3cnc4ccc(O)cc4c3)n2)cc(OC)c1OC` [Example 135, N^4-(6-Hydroxy-quinolin-3-yl)-N^2-(3,4,5-tris(methoxy)phenyl)-2,4-pyrimidinediamine] yielded an IC50 of under 0.05 µM. In the case of `COc1ccc2ncc(Nc3ccnc(Nc4cc(OC)c(OC)cc4C)n3)cc2c1` [Example 137, N^4-(6-Methoxy-3-quinolinyl)-N^2-(2-methyl-4,5-dimethoxyphenyl)-2,4-pyrimidinediamine], the IC50 is reported as under 0.05 µM. `COc1ccc2ncc(Nc3ccnc(Nc4ccc(OCCCN5CCCCC5)cc4)n3)cc2c1` [Example 138, N^4-(6-Methoxy-3-quinolinyl)-N^2-[4-(3-(piperidin-1-yl)-propoxy)phenyl]-2,4-pyrimidinediamine] was tested, and the IC50 was under 0.05 µM. `COc1cc(Nc2nccc(Nc3cnc4ccc(OC(F)(F)F)cc4c3)n2)cc(OC)c1OC` [Example 139, N^2-(3,4,5-Tris(methoxy)phenyl)-N^4-(6-trifluoromethoxy-3-quinolinyl)-2,4-pyrimidinediamine] was tested, and the IC50 was under 0.05 µM. `COc1cc(C)c(Nc2nccc(Nc3cnc4ccc(OC(F)(F)F)cc4c3)n2)cc1OC` [Example 140, N^2-(2-Methyl-4,5-dimethoxyphenyl)-N^4-(6-trifluoromethoxy-3-quinolinyl)-2,4-pyrimidinediamine] showed an IC50 of under 0.05 µM. `FC(F)(F)Oc1ccc2ncc(Nc3ccnc(Nc4ccc(OCCCN5CCCCC5)cc4)n3)cc2c1` [Example 141, N^2-[4-(3-(Piperidin-1-yl)-propoxy)phenyl]-N^4-(6-trifluoromethoxy-3-quinolinyl)-2,4-pyrimidinediamine] showed an IC50 of under 0.05 µM. In the case of `COc1ccc2cc(Nc3ccnc(Nc4cc(OC)c(OC)c(OC)c4)n3)cnc2c1` [Example 145, N^2-(3,4,5-Tris(methoxy)phenyl)-N^4-(7-methoxy-3-quinolinyl)-2,4-pyrimidinediamine], the IC50 is reported as under 0.05 µM.
